Source: PubChem BioAssay AID248 (DTP/NCI, 2004)
The list shows only some results of the screen, not a fair sample: it gathers tests that were run many times, whatever their T/C, doses with no T/C, and many T/C values between a quarter and a half above the control. Further doses and runs are listed elsewhere. T/C gives the treated animals as a percentage of the vehicle group. Some doses have a count of surviving animals in place of a T/C: the source files T/C as zero there, which appears to mark a toxic dose or a test without result, not a measured value. Some doses without a T/C left all or most animals alive at the check, yet need not have been tolerated: the source hardly ever lists a survival T/C far under the control, and the zero likely stands for such cases as well. Counts of survivors are from the toxicity check (mostly the fifth day) where no day follows; animals may have died later. Schedule codes are those of the source, taken here to give the interval after Q, in days (D) or hours (H), and the number of doses after X. Some schedule codes hold Z or #, which are not explained here. Where survival is the endpoint, this PubChem deposit counts one and a half times the control or more as active, and values a quarter to a half above the control carry no call in these data; other NCI protocols may use other cut-offs. Some entries were tested several times; the results are listed from low to high. Counts like (3×) stand for listed records that agree. Some T/C values are followed by the survivors on the day toxicity was checked, most often the fifth; where none is given, no animal had died by that day.

Tested on: L1210 leukemia ip in BDF1 mice, survival T/C
Assay: NCI In Vivo Anticancer Drug Screen. Data for tumor model L1210 Leukemia (intraperitoneal) in B6D2F1 (BDF1) mice
Details: T/C endpoint: mean survival time, higher T/C = longer survival
[1] = dose: 0.25 mg/kg/injection, schedule: Q#A X Z (ip), vehicle: saline
[2] = dose: 0.5 mg/kg/injection, schedule: Q#A X Z (ip), vehicle: saline
[3] = dose: 2.0 mg/kg/injection, schedule: Q01DX Z (ip), vehicle: saline

Nc1nc(=S)c2[nH]cnc2[nH]1
T/C (dose: 0.06 mg/kg/injection, schedule: Q01DX Z (ip), vehicle: carboxymethylcellulose (CMC)): 125 % of control | T/C (dose: 0.09 mg/kg/injection, schedule: Q01DX Z (ip), vehicle: carboxymethylcellulose (CMC)): 131 % of control | T/C (dose: 0.12 mg/kg/injection, schedule: Q01DX009 (ip), vehicle: alkali diluted with saline): 131 % of control | T/C (dose: 0.12 mg/kg/injection, schedule: Q#A X Z (ip), vehicle: saline): 125 % of control | T/C (dose: 0.14 mg/kg/injection, schedule: Q01DX Z (ip), vehicle: carboxymethylcellulose (CMC)): 125 % of control | T/C (dose: 0.16 mg/kg/injection, schedule: Q03HX024 (ip), vehicle: alkali diluted with saline, evaluated on day 5): 125 % of control | T/C (dose: 0.16 mg/kg/injection, schedule: Q03HX024 (ip), vehicle: alkali diluted with saline, evaluated on day 60): 125 % of control | T/C (dose: 0.22 mg/kg/injection, schedule: Q01DX Z (ip), vehicle: carboxymethylcellulose (CMC)): 142 % of control | T/C (dose: 0.23 mg/kg/injection, schedule: Q01DX009 (ip), vehicle: alkali diluted with saline): 125 and 134 % of control | T/C (dose: 0.24 mg/kg/injection, schedule: Q03HX024 (ip), vehicle: alkali diluted with saline, evaluated on day 5): 127 % of control | T/C (dose: 0.24 mg/kg/injection, schedule: Q03HX024 (ip), vehicle: alkali diluted with saline, evaluated on day 60): 127 % of control | T/C (dose: 0.24 mg/kg/injection, schedule: Q03HX032 (ip), vehicle: alkali diluted with saline): 134 % of control | T/C (dose: 0.25 mg/kg/injection, schedule: Q01DX Z (ip), vehicle: saline): 130 % of control | T/C [1]: 133 % of control | survivor count [1]: 6 of 6 | T/C (dose: 0.33 mg/kg/injection, schedule: Q01DX015 (ip), vehicle: alkali diluted with saline, evaluated on day 5): 132 % of control | T/C (dose: 0.33 mg/kg/injection, schedule: Q01DX015 (ip), vehicle: alkali diluted with saline, evaluated on day 45): 130 % of control | T/C (dose: 0.36 mg/kg/injection, schedule: Q03HX024 (ip), vehicle: alkali diluted with saline, evaluated on day 5): 137 % of control | T/C (dose: 0.36 mg/kg/injection, schedule: Q03HX024 (ip), vehicle: alkali diluted with saline, evaluated on day 60): 137 % of control | T/C (dose: 0.39 mg/kg/injection, schedule: Q03HX008 (ip), vehicle: alkali diluted with saline): 139 % of control | T/C (dose: 0.4 mg/kg/injection, schedule: Q01DX015 (ip), vehicle: alkali diluted with saline): 145 % of control | T/C (dose: 0.44 mg/kg/injection, schedule: Q01DX015 (ip), vehicle: alkali diluted with saline, evaluated on day 5): 134, 140, 152, 160, 181 % of control | T/C (dose: 0.44 mg/kg/injection, schedule: Q01DX015 (ip), vehicle: alkali diluted with saline, evaluated on day 45): 128, 135, 181 % of control | T/C (dose: 0.44 mg/kg/injection, schedule: Q## X015 (ip), vehicle: alkali diluted with saline): 134 % of control | T/C (dose: 0.45 mg/kg/injection, schedule: Q01DX009 (ip), vehicle: alkali diluted with saline): 121, 136, 137, 140 % of control | T/C (dose: 0.5 mg/kg/injection, schedule: Q01DX Z (ip), vehicle: saline): 142, 143, 158, 170 % of control | T/C (dose: 0.5 mg/kg/injection, schedule: Q01DX Z (sc), vehicle: saline): 127 and 138 % of control | T/C [2]: 137 % of control | survivor count [2]: 3 of 6 | T/C (dose: 0.54 mg/kg/injection, schedule: Q03HX024 (ip), vehicle: alkali diluted with saline, evaluated on day 5): 138 % of control | T/C (dose: 0.54 mg/kg/injection, schedule: Q03HX024 (ip), vehicle: alkali diluted with saline, evaluated on day 60): 138 % of control [9 of 10 alive] | T/C (dose: 0.6 mg/kg/injection, schedule: Q01DX015 (ip), vehicle: alkali diluted with saline): 147 % of control | T/C (dose: 0.67 mg/kg/injection, schedule: Q01DX015 (ip), vehicle: alkali diluted with saline, evaluated on day 5): 157, 163, 183 (2×), 187 % of control | T/C (dose: 0.67 mg/kg/injection, schedule: Q01DX015 (ip), vehicle: alkali diluted with saline, evaluated on day 45): 120, 176, 187 % of control | T/C (dose: 0.74 mg/kg/injection, schedule: Q01DX013 (ip), vehicle: saline): 140 % of control | T/C (dose: 0.81 mg/kg/injection, schedule: Q03HX024 (ip), vehicle: alkali diluted with saline, evaluated on day 5): 137 % of control | T/C (dose: 0.81 mg/kg/injection, schedule: Q03HX024 (ip), vehicle: alkali diluted with saline, evaluated on day 60): 137 % of control | T/C (dose: 0.83 mg/kg/injection, schedule: Q01DX015 (ip), vehicle: alkali diluted with saline): 142 % of control | T/C (dose: 0.88 mg/kg/injection, schedule: Q07DX003 (ip), vehicle: saline): 129 and 139 % of control | T/C (dose: 0.9 mg/kg/injection, schedule: Q01DX009 (ip), vehicle: alkali diluted with saline): 148, 160, 163, 182 % of control | T/C (dose: 1.0 mg/kg/injection, schedule: Q01DX015 (ip), vehicle: alkali diluted with saline, evaluated on day 5): 162, 168, 171, 178, 198 % of control | T/C (dose: 1.0 mg/kg/injection, schedule: Q01DX015 (ip), vehicle: alkali diluted with saline, evaluated on day 45): 174, 198, 202 % of control | T/C (dose: 1.0 mg/kg/injection, schedule: Q01DX Z (im), vehicle: saline): 133 % of control | T/C (dose: 1.0 mg/kg/injection, schedule: Q01DX Z (ip), vehicle: saline): 91 [5 of 6 alive], 137, 138, 158 % of control | T/C (dose: 1.0 mg/kg/injection, schedule: Q01DX Z (sc), vehicle: saline): 133 and 140 % of control | survivor count (dose: 1.0 mg/kg/injection, schedule: Q#A X Z (ip), vehicle: saline): 3 of 6 | T/C (dose: 1.2 mg/kg/injection, schedule: Q01DX009 (ip), vehicle: alkali diluted with saline): 148 % of control | T/C (dose: 1.25 mg/kg/injection, schedule: Q01DX010 (ip), vehicle: other): 139 % of control | T/C (dose: 1.35 mg/kg/injection, schedule: Q03HX032 (ip), vehicle: alkali diluted with saline, evaluated on day 5): 137 % of control | T/C (dose: 1.35 mg/kg/injection, schedule: Q03HX032 (ip), vehicle: alkali diluted with saline, evaluated on day 45): 137 % of control | T/C (dose: 1.47 mg/kg/injection, schedule: Q01DX009 (ip), vehicle: alkali diluted with saline): 145 % of control | T/C (dose: 1.47 mg/kg/injection, schedule: Q01DX Z (ip), vehicle: carboxymethylcellulose (CMC)): 139 % of control | T/C (dose: 1.5 mg/kg/injection, schedule: Q01DX015 (ip), vehicle: alkali diluted with saline, evaluated on day 5): 155, 159, 160, 169, 173 % of control | T/C (dose: 1.5 mg/kg/injection, schedule: Q01DX015 (ip), vehicle: alkali diluted with saline, evaluated on day 45): 173, 185, 196 % of control | T/C (dose: 1.5 mg/kg/injection, schedule: Q03DX006 (ip), vehicle: saline): 137 % of control | T/C (dose: 1.5 mg/kg/injection, schedule: Q04DX012 (ip), vehicle: alkali diluted with saline): 135 % of control | T/C (dose: 1.6 mg/kg/injection, schedule: Q01DX Z (ip), vehicle: carboxymethylcellulose (CMC)): 147 % of control | T/C (dose: 1.8 mg/kg/injection, schedule: Q01DX009 (ip), vehicle: alkali diluted with saline, evaluated on day 30): 170, 199, 228, 267 % of control | T/C (dose: 1.8 mg/kg/injection, schedule: Q01DX009 (ip), vehicle: alkali diluted with saline, evaluated on day 45): 148 and 161 % of control | T/C (dose: 1.8 mg/kg/injection, schedule: Q04DX002 (ip), vehicle: alkali diluted with saline): 143 % of control | T/C (dose: 1.96 mg/kg/injection, schedule: Q01DX Z (ip), vehicle: carboxymethylcellulose (CMC)): 147 % of control | T/C (dose: 2.0 mg/kg/injection, schedule: Q01DX006 (iv), vehicle: saline): 145 % of control | T/C (dose: 2.0 mg/kg/injection, schedule: Q01DX Z (im), vehicle: saline): 137 % of control | T/C (dose: 2.0 mg/kg/injection, schedule: Q01DX Z (ip), vehicle: carboxymethylcellulose (CMC)): 131 and 146 % of control | T/C [3]: 142 % of control | survivor count [3]: 5 of 6 | T/C (dose: 2.0 mg/kg/injection, schedule: Q01DX Z (oral), vehicle: saline): 133 and 148 % of control | T/C (dose: 2.0 mg/kg/injection, schedule: Q01DX Z (sc), vehicle: saline): 135 % of control | survivor count (dose: 2.0 mg/kg/injection, schedule: Q#A X Z (ip), vehicle: saline): 2 of 6 | T/C (dose: 2.1 mg/kg/injection, schedule: Q03HX024 (ip), vehicle: alkali diluted with saline): 145 % of control | T/C (dose: 2.2 mg/kg/injection, schedule: Q01DX009 (ip), vehicle: alkali diluted with saline): 142 % of control | T/C (dose: 2.25 mg/kg/injection, schedule: Q01DX015 (ip), vehicle: alkali diluted with saline, evaluated on day 5): 129, 159, 169 % of control | T/C (dose: 2.25 mg/kg/injection, schedule: Q01DX015 (ip), vehicle: alkali diluted with saline, evaluated on day 45): 169 % of control | T/C (dose: 2.25 mg/kg/injection, schedule: Q## X015 (ip), vehicle: alkali diluted with saline): 129 % of control | T/C (dose: 2.3 mg/kg/injection, schedule: Q04DX012 (ip), vehicle: alkali diluted with saline): 140 % of control | T/C (dose: 2.3 mg/kg/injection, schedule: Q07DX012 (ip), vehicle: alkali diluted with saline): 145 % of control | T/C (dose: 2.45 mg/kg/injection, schedule: Q01DX Z (ip), vehicle: carboxymethylcellulose (CMC)): 130 % of control | T/C (dose: 2.5 mg/kg/injection, schedule: Q01DX010 (ip), vehicle: other): 141 % of control | T/C (dose: 2.5 mg/kg/injection, schedule: Q01DX Z (ip), vehicle: carboxymethylcellulose (CMC)): 132 % of control | T/C (dose: 3.5 mg/kg/injection, schedule: Q01DX001 (ip), vehicle: saline): 148 % of control | T/C (dose: 3.5 mg/kg/injection, schedule: Q04DX002 (ip), vehicle: alkali diluted with saline): 147 % of control | T/C (dose: 3.5 mg/kg/injection, schedule: Q04DX012 (ip), vehicle: alkali diluted with saline): 137 % of control | T/C (dose: 3.5 mg/kg/injection, schedule: Q07DX008 (ip), vehicle: alkali diluted with saline): 146 % of control
